Data: the supplement of paper PMC9233669
Variants at the background level are over-represented here.

Legend:
[1] = tested on: biotinyl-Met-oxazolone; test: self-aminoacylation, catalytic enhancement (BMO) (fold over background); higher = more active; k-Seq, kA / k0A0; sequences stand for … in GGGAAUGGAUCCACAUCUACGAAUUC…UUCACUGCAGACUUGACGAAGCUG
Procedure, shortened: (§1)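 Mutagenized RNA pools with a 21-nt variable region (0.43 μM) were reacted with each biotinyl-aminoacyl-oxazolone at 2–1250 μM for 90 minutes at room temperature, in 50 μL HEPES/NaCl/KCl/MgCl2/CaCl2 buffer containing 5% acetonitrile at pH 6.9–7.0. RNA captured on streptavidin was quantified by triplicate qPCR and by Illumina sequencing. The fraction reacted for each sequence was fit to a pseudo-first-order model with bootstrapping, and catalytic enhancement is the median kA divided by the uncatalyzed rate, taken as the low-activity peak of a bimodal Gaussian fit.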

[2] = tested on: biotinyl-Val-oxazolone; test: self-aminoacylation, catalytic enhancement (BVO) (fold over background); higher = more active; k-Seq, kA / k0A0; sequences stand for … in GGGAAUGGAUCCACAUCUACGAAUUC…UUCACUGCAGACUUGACGAAGCUG
Procedure, shortened: as §1

[3] = tested on: biotinyl-Phe-oxazolone; test: self-aminoacylation, catalytic enhancement (BFO) (fold over background); higher = more active; k-Seq, kA / k0A0; sequences stand for … in GGGAAUGGAUCCACAUCUACGAAUUC…UUCACUGCAGACUUGACGAAGCUG
Procedure, shortened: as §1

[4] = tested on: biotinyl-Leu-oxazolone; test: self-aminoacylation, catalytic enhancement (BLO) (fold over background); higher = more active; k-Seq, kA / k0A0; sequences stand for … in GGGAAUGGAUCCACAUCUACGAAUUC…UUCACUGCAGACUUGACGAAGCUG
Procedure, shortened: as §1

[5] = tested on: biotinyl-Trp-oxazolone; test: self-aminoacylation, catalytic enhancement (BWO) (fold over background); higher = more active; k-Seq, kA / k0A0; sequences stand for … in GGGAAUGGAUCCACAUCUACGAAUUC…UUCACUGCAGACUUGACGAAGCUG
Procedure, shortened: as §1

[6] = tested on: biotinyl-Ile-oxazolone; test: self-aminoacylation, catalytic enhancement (BIO) (fold over background); higher = more active; k-Seq, kA / k0A0; sequences stand for … in GGGAAUGGAUCCACAUCUACGAAUUC…UUCACUGCAGACUUGACGAAGCUG
Procedure, shortened: as §1

Sequence | self-aminoacylation [1] | self-aminoacylation [2] | self-aminoacylation [3] | self-aminoacylation [4] | self-aminoacylation [5] | self-aminoacylation [6]
AAAUUUGCUAAUAGACGCAAG [Fam3.1 aminoacylation ribozyme variant] | 0.766 | 1.08 | 1.33 | 0.838 | 0.793 | 0.953
AAAUUUGCUAAUCGUCGCAAG [Fam3.1 aminoacylation ribozyme variant] | 1.65 | 1.89 | 1.51 | 1.79 | 1.54 | 1.76
AAGCUUGCUAAAAGUCGCAAG [Fam3.1 aminoacylation ribozyme variant] | 3.31 | 1.79 | 5.12 | 3.1 | 3.43 | 2.16
AAGCUUGCUAAUAGUCGCAUG [Fam3.1 aminoacylation ribozyme variant] | 1.74 | 1.55 | 3.98 | 2.07 | 1.87 | 1.8
AAGGUUGCUAAUAGUCGCAAA [Fam3.1 aminoacylation ribozyme variant] | 1.28 | 1.42 | 1.51 | 1.63 | 1.4 | 1.86
AAGGUUGCUAAUAGUCGCAAC [Fam3.1 aminoacylation ribozyme variant] | 1.94 | 1.23 | 1.18 | 1.22 | 1.52 | 1.44
AAGGUUUCUAAUAGUCGCAAG [Fam3.1 aminoacylation ribozyme variant] | 1.04 | 1.53 | 2.65 | 1.05 | 1.6 | 1.64
AAGUAUGCUAAUAGGCGCAAG [Fam3.1 aminoacylation ribozyme variant] | 0.748 | 1.18 | 0.856 | 1.08 | 1.58 | 0.992
AAGUCUGCUAAUAAUCGCAAG [Fam3.1 aminoacylation ribozyme variant] | 0.9 | 0.789 | 1.49 | 0.869 | 1.08 | 0.782
AAGUCUGCUAAUACUCGCAAG [Fam3.1 aminoacylation ribozyme variant] | 0.838 | 0.931 | 0.977 | 0.835 | 0.987 | 0.775
AAGUCUGCUAAUAGUUGCAAG [Fam3.1 aminoacylation ribozyme variant] | 1.4 | 0.748 | 1.19 | 1.22 | 1.27 | 0.878
AAGUCUGCUCAUAGUCGCAAG [Fam3.1 aminoacylation ribozyme variant] | 1.29 | 1.18 | 8.38 | 1.08 | 4.23 | 1.16
AAGUGUGCUAAUAGUCGGAAG [Fam3.1 aminoacylation ribozyme variant] | 1.4 | 1.26 | 11 | 1.31 | 3.96 | 1.47
AAGUGUGCUAAUAGUCUCAAG [Fam3.1 aminoacylation ribozyme variant] | 1.4 | 1.62 | 8.7 | 1.44 | 2.73 | 1.26
AAGUGUGCUAAUAGUUGCAAG [Fam3.1 aminoacylation ribozyme variant] | 1.7 | 1.16 | 1.84 | 1.18 | 0.866 | 1.38
AAGUGUGCUAGUAGUCGCAAG [Fam3.1 aminoacylation ribozyme variant] | 0.889 | 1.15 | 0.87 | 0.868 | 0.683 | 0.86
AAGUGUGCUUAUAGUCGCAAG [Fam3.1 aminoacylation ribozyme variant] | 1.21 | 1.24 | 1.25 | 1.2 | 1.79 | 1.33
AAGUUAACUAAUAGUCGCAAG [Fam3.1 aminoacylation ribozyme variant] | 1.21 | 1.55 | 1.77 | 1.49 | 1.2 | 1.63
AAGUUAGCUAAUACUCGCAAG [Fam3.1 aminoacylation ribozyme variant] | 1.05 | 1.5 | 1.48 | 1.49 | 1.51 | 1.6
AAGUUCGCUAAAAGUCGCAAG [Fam3.1 aminoacylation ribozyme variant] | 2.51 | 1.67 | 4.4 | 2.68 | 3.39 | 2.42
AAGUUCGCUAAUAGUCCCAAG [Fam3.1 aminoacylation ribozyme variant] | 1.1 | 0.716 | 1.41 | 0.899 | 0.795 | 1.41
AAGUUGACUAAUAGUCGCAAG [Fam3.1 aminoacylation ribozyme variant] | 0.839 | 0.949 | 1.5 | 0.935 | 1.19 | 1.18
AAGUUUACUAAUAGUCCCAAG [Fam3.1 aminoacylation ribozyme variant] | 0.942 | 0.716 | 1.58 | 1.11 | 0.872 | 1.08
AAGUUUACUAAUAGUGGCAAG [Fam3.1 aminoacylation ribozyme variant] | 0.844 | 0.676 | 0.824 | 0.538 | 0.574 | 0.68
AAGUUUGAUAAUAGUCGCCAG [Fam3.1 aminoacylation ribozyme variant] | 0.898 | 0.74 | 0.755 | 0.844 | 0.785 | 0.762
AAGUUUGCAAAUAGUCCCAAG [Fam3.1 aminoacylation ribozyme variant] | 0.774 | 0.876 | 0.855 | 0.816 | 0.867 | 1.07

Sequence | self-aminoacylation [1] | self-aminoacylation [2] | self-aminoacylation [3] | self-aminoacylation [4] | self-aminoacylation [5] | self-aminoacylation [6]
AAGUUUGCCAACAGUCGCAAG [Fam3.1 aminoacylation ribozyme variant] | 1.15 | 1.13 | 1.33 | 1.38 | 1.63 | 1.52
AAGUUUGCCAAUAAUCGCAAG [Fam3.1 aminoacylation ribozyme variant] | 0.6 | 0.95 | 1.15 | 0.557 | 0.881 | 0.881
AAGUUUGCCAAUAGUCGCACG [Fam3.1 aminoacylation ribozyme variant] |  | 1.6 | 1.54 |  | 1.51 | 1.33
AAGUUUGCCAUUAGUCGCAAG [Fam3.1 aminoacylation ribozyme variant] | 1.45 | 0.936 | 1.84 | 0.869 | 1.11 | 0.922
AAGUUUGCCGAUAGUCGCAAG [Fam3.1 aminoacylation ribozyme variant] | 1.46 | 1.32 | 1.62 | 1.51 | 1.66 | 1.44
AAGUUUGCGAACAGUCGCAAG [Fam3.1 aminoacylation ribozyme variant] | 1.43 | 0.858 | 1.19 | 0.729 | 1.32 | 1.13
AAGUUUGCGAAUAGGCGCAAG [Fam3.1 aminoacylation ribozyme variant] | 1.07 | 1.11 | 9.76 | 1.1 | 1.27 | 1.15
AAGUUUGCGAAUAGUCGCACG [Fam3.1 aminoacylation ribozyme variant] | 0.942 | 1.24 | 0.545 | 1.34 | 0.865 | 1.1
AAGUUUGCUAAAAGGCGCAAG [Fam3.1 aminoacylation ribozyme variant] | 0.521 | 0.563 | 0.904 | 0.673 | 0.576 | 0.664
AAGUUUGCUAAAAGUCCCAAG [Fam3.1 aminoacylation ribozyme variant] | 0.96 | 0.834 | 1.43 | 0.866 | 1.05 | 1.04
AAGUUUGCUAAAAGUCGCCAG [Fam3.1 aminoacylation ribozyme variant] | 1.72 | 1.16 | 1.16 | 1.51 | 2.25 | 1.49
AAGUUUGCUAAAAGUGGCAAG [Fam3.1 aminoacylation ribozyme variant] | 0.851 | 0.726 | 0.961 | 0.849 | 0.736 | 0.734
AAGUUUGCUAAUAAUAGCAAG [Fam3.1 aminoacylation ribozyme variant] | 0.923 | 0.929 | 1.65 | 1.14 | 0.784 | 1.14
AAGUUUGCUAAUAAUCGCAAU [Fam3.1 aminoacylation ribozyme variant] | 1.05 | 1.09 | 0.999 | 1.01 | 1.09 | 1.25
AAGUUUGCUAAUAAUCUCAAG [Fam3.1 aminoacylation ribozyme variant] | 0.768 | 0.984 | 1.17 | 0.727 | 0.999 | 0.9
AAGUUUGCUAAUACUCGAAAG [Fam3.1 aminoacylation ribozyme variant] | 0.593 | 0.609 | 0.913 | 0.679 | 0.737 | 0.655
AAGUUUGCUAAUACUCGCACG [Fam3.1 aminoacylation ribozyme variant] | 0.567 | 0.604 | 0.744 | 0.49 | 0.604 | 0.525
AAGUUUGCUAAUAGAAGCAAG [Fam3.1 aminoacylation ribozyme variant] | 1.12 | 1.06 | 1.7 | 0.697 | 0.802 | 1.03
AUUACCGUGGUCAUCGAGCGA [Fam2.1 aminoacylation ribozyme variant] | 1.74 | 1.95 | 1.22 | 1.99 |  | 1.73
AUUCACCUAGGUUAUCAGGUG [Fam2.2 aminoacylation ribozyme variant] | 1.63 | 1.48 | 1.4 | 1.74 |  | 1.53
CCACACUUCAAGCAAACGGGC [Fam1B.1 aminoacylation ribozyme variant] | 1.15 |  | 0.68 | 1.58 | 1.72 | 1.6
CCACACUUCAAGCCAUCCGUC [Fam1B.1 aminoacylation ribozyme variant] | 1.77 | 1.26 | 1.12 | 1.86 | 1.7 | 
CCACCCUUCAAGCAUUCGGUC [Fam1B.1 aminoacylation ribozyme variant] | 1.97 |  | 1.1 | 1.9 | 1.91 | 1.72
CCACCCUUCAAGCCAUCGGUC [Fam1B.1 aminoacylation ribozyme variant] | 1.48 | 1.86 | 0.968 | 1.56 |  | 1.53
CUACGUCAAACAAUCGGUGUG [Fam1A.1 aminoacylation ribozyme variant] | 1.66 | 1.52 | 1.01 |  | 1.77 | 1.22
GUACGUCAAACAAUCGGUCUG [Fam1A.1 aminoacylation ribozyme variant] | 1.44 | 1.71 | 1.79 | 1.51 |  | 1.61
